{"source": "PubChem BioAssay AID1259405, NCATS | 2018", "aim": "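Mouse-designed siRNAs used to find CHO productivity engineering targets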 (primary screen)", "cell system": "Chinese hamster CHO-K1 ovary cells with stable secreted eGFP expression", "reagent": "single siRNA against mouse genes, 0.8 pmol siRNA per well (2 µl of 400 nM stock)", "duration": "3 days", "measurement": "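Percent of the per-plate non-targeting control median for intracellular GFP per well by laser scanning cytometry and for cell viability by ATP luminescence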", "reading the numbers": "GFP, % of control: higher = more GFP per well, higher productivity; viability (ATP), % of control: higher = more viable cells (more ATP)", "call rule": "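a knock-down is called active if GFP reaches 120% or more of non-targeting control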", "note": "Shown is one part, drawn at random, of about 50,000 reagents tested. About 4,000 of them (8%) were called active. 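Mouse siRNA library applied to hamster cells; one well for each siRNA.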 Entries without a mark were called inactive. Reagents against one gene are numbered here. No sequences are given here."}
The first 5 records, to show the layout:
{"target gene": "Mboat1 (membrane bound O-acyltransferase domain containing 1)", "reagent no.": 1, "GFP, % of control": 93.6, "viability (ATP), % of control": 104}
{"target gene": "Mboat1 (membrane bound O-acyltransferase domain containing 1)", "reagent no.": 2, "GFP, % of control": 69.7, "viability (ATP), % of control": 108}
{"target gene": "Mboat1 (membrane bound O-acyltransferase domain containing 1)", "reagent no.": 3, "GFP, % of control": 116, "viability (ATP), % of control": 133}
{"target gene": "Immp1l", "reagent no.": 1, "GFP, % of control": 97.9, "viability (ATP), % of control": 138}
{"target gene": "Immp1l", "reagent no.": 2, "GFP, % of control": "132 (active)", "viability (ATP), % of control": 104}

Results, from the first entry:
{"target gene": "Mboat1 (membrane bound O-acyltransferase domain containing 1)", "reagent no.": 1, "GFP, % of control": 93.6, "viability (ATP), % of control": 104}
{"target gene": "Mboat1 (membrane bound O-acyltransferase domain containing 1)", "reagent no.": 2, "GFP, % of control": 69.7, "viability (ATP), % of control": 108}
{"target gene": "Mboat1 (membrane bound O-acyltransferase domain containing 1)", "reagent no.": 3, "GFP, % of control": 116, "viability (ATP), % of control": 133}
{"target gene": "Immp1l", "reagent no.": 1, "GFP, % of control": 97.9, "viability (ATP), % of control": 138}
{"target gene": "Immp1l", "reagent no.": 2, "GFP, % of control": "132 (active)", "viability (ATP), % of control": 104}
{"target gene": "Immp1l", "reagent no.": 3, "GFP, % of control": 86.1, "viability (ATP), % of control": 97.6}
{"target gene": "Gnb1l", "reagent no.": 1, "GFP, % of control": 53.2, "viability (ATP), % of control": 60.6}
{"target gene": "Gnb1l", "reagent no.": 2, "GFP, % of control": 77.2, "viability (ATP), % of control": 40.6}
{"target gene": "Gnb1l", "reagent no.": 3, "GFP, % of control": "197 (active)", "viability (ATP), % of control": 74.1}
{"target gene": "Nectin3 (nectin cell adhesion molecule 3)", "reagent no.": 1, "GFP, % of control": 108, "viability (ATP), % of control": 110}
{"target gene": "Nectin3 (nectin cell adhesion molecule 3)", "reagent no.": 2, "GFP, % of control": 89.1, "viability (ATP), % of control": 81.2}
{"target gene": "Nectin3 (nectin cell adhesion molecule 3)", "reagent no.": 3, "GFP, % of control": 78.8, "viability (ATP), % of control": 112}
{"target gene": "Plekhj1 (pleckstrin homology domain containing J1)", "reagent no.": 1, "GFP, % of control": "185 (active)", "viability (ATP), % of control": 93.8}
{"target gene": "Plekhj1 (pleckstrin homology domain containing J1)", "reagent no.": 2, "GFP, % of control": "132 (active)", "viability (ATP), % of control": 63.5}
{"target gene": "Plekhj1 (pleckstrin homology domain containing J1)", "reagent no.": 3, "GFP, % of control": "145 (active)", "viability (ATP), % of control": 122}
{"target gene": "Stard13 (StAR related lipid transfer domain containing 13)", "reagent no.": 1, "GFP, % of control": 68.6, "viability (ATP), % of control": 89}
{"target gene": "Stard13 (StAR related lipid transfer domain containing 13)", "reagent no.": 2, "GFP, % of control": 104, "viability (ATP), % of control": 79.5}
{"target gene": "Stard13 (StAR related lipid transfer domain containing 13)", "reagent no.": 3, "GFP, % of control": 51.7, "viability (ATP), % of control": 50.2}
{"target gene": "Trim11 (tripartite motif-containing 11)", "reagent no.": 1, "GFP, % of control": 81.1, "viability (ATP), % of control": 69.2}
{"target gene": "Trim11 (tripartite motif-containing 11)", "reagent no.": 2, "GFP, % of control": 111, "viability (ATP), % of control": 73.5}
{"target gene": "Trim11 (tripartite motif-containing 11)", "reagent no.": 3, "GFP, % of control": 69.7, "viability (ATP), % of control": 78.3}
{"target gene": "Cog2 (component of oligomeric golgi complex 2)", "reagent no.": 1, "GFP, % of control": 99.7, "viability (ATP), % of control": 69.9}
{"target gene": "Cog2 (component of oligomeric golgi complex 2)", "reagent no.": 2, "GFP, % of control": 66.3, "viability (ATP), % of control": 50.9}
{"target gene": "Gm9725 (predicted gene 9725)", "reagent no.": 1, "GFP, % of control": 103, "viability (ATP), % of control": 84.7}
{"target gene": "Gm9725 (predicted gene 9725)", "reagent no.": 2, "GFP, % of control": 45.5, "viability (ATP), % of control": 51.9}
{"target gene": "Gm9725 (predicted gene 9725)", "reagent no.": 3, "GFP, % of control": 79.2, "viability (ATP), % of control": 105}
{"target gene": "Chst10 (carbohydrate sulfotransferase 10)", "reagent no.": 1, "GFP, % of control": "130 (active)", "viability (ATP), % of control": 123}
{"target gene": "Chst10 (carbohydrate sulfotransferase 10)", "reagent no.": 2, "GFP, % of control": 99.8, "viability (ATP), % of control": 174}
{"target gene": "Chst10 (carbohydrate sulfotransferase 10)", "reagent no.": 3, "GFP, % of control": "139 (active)", "viability (ATP), % of control": 90.3}
{"target gene": "Kdm4b (lysine (K)-specific demethylase 4B)", "reagent no.": 1, "GFP, % of control": 44.4, "viability (ATP), % of control": 68.3}
{"target gene": "Kdm4b (lysine (K)-specific demethylase 4B)", "reagent no.": 2, "GFP, % of control": 88.2, "viability (ATP), % of control": 88.7}
{"target gene": "Kdm4b (lysine (K)-specific demethylase 4B)", "reagent no.": 3, "GFP, % of control": 58.1, "viability (ATP), % of control": 82.6}
{"target gene": "Ngp (neutrophilic granule protein)", "reagent no.": 1, "GFP, % of control": 89.2, "viability (ATP), % of control": 73.2}
{"target gene": "Ngp (neutrophilic granule protein)", "reagent no.": 2, "GFP, % of control": 77.3, "viability (ATP), % of control": 66.4}
{"target gene": "Ngp (neutrophilic granule protein)", "reagent no.": 3, "GFP, % of control": 83.1, "viability (ATP), % of control": 100}
{"target gene": "Trappc2 (trafficking protein particle complex 2)", "reagent no.": 1, "GFP, % of control": 50, "viability (ATP), % of control": 57.5}
{"target gene": "Trappc2 (trafficking protein particle complex 2)", "reagent no.": 2, "GFP, % of control": 80.6, "viability (ATP), % of control": 91.6}
{"target gene": "Trappc2 (trafficking protein particle complex 2)", "reagent no.": 3, "GFP, % of control": 68.9, "viability (ATP), % of control": 71.9}
{"target gene": "Gfra2", "reagent no.": 1, "GFP, % of control": 71.2, "viability (ATP), % of control": 107}
{"target gene": "Gfra2", "reagent no.": 2, "GFP, % of control": "120 (active)", "viability (ATP), % of control": 57.6}
